# Data published in article PMC12249550.
# These are yes or no findings as the source states them, for the method shown. Some entries that bind do so weakly or less than the wild type.
# T1: RpoE (sigma E), extracytoplasmic function sigma factor (Escherichia coli) (UniProt P0AGB6)
# T1 sequence: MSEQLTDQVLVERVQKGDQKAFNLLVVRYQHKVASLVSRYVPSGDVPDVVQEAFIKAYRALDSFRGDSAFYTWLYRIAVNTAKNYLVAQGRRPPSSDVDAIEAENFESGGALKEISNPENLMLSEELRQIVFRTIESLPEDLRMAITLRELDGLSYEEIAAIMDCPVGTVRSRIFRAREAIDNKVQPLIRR
# Legend:
# [1] = target: T1, RpoE (sigma E), extracytoplasmic function sigma factor (Escherichia coli); assay: two-hybrid; bacterial adenylate cyclase two-hybrid (BACTH) in E. coli BTH101; T18 and T25 fusions in both orientations; cultures with 100 uM IPTG spotted on MacConkey maltose agar, 30 °C, 24 to 48 h; colony colour
# [2] = target: T1, RpoE (sigma E), extracytoplasmic function sigma factor (Escherichia coli); assay: two-hybrid; bacterial adenylate cyclase two-hybrid (BACTH) in E. coli BTH101; T18-NsrR + T25-RpoE and T18-RpoE + T25-NsrR; quantitative β-galactosidase assay on parallel cultures, compared with vector-only controls
binder,measurement,setting,value
"NsrR, nitric-oxide-sensing transcriptional repressor (protein, UniProt P0AF63 1-141) MQLTSFTDYGLRALIYMASLPEGRMTSISEVTDVYGVSRNHMVKIINQLSRAGYVTAVRGKNGGIRLGKPASAIRIGDVVRELEPLSLVNCSSEFCHITPACRLKQALSKAVQSFLTELDNYTLADLVEENQPLYKLLLVE",binding,[1],binds
same,binding,[2],binds
